Experimental data: patent publication EP4473018A2
Results are given in words; binding and its absence hold for the method and conditions named. Binding can be weak; no strength is given.

Key:
Assay in all cases: ELISA, antigen coated at 50 ng/well
[1] = molecular target: cynomolgus B7-H3 antigen protein (Sino Biologicals; Cat. No. 90806-C08H-20) (cynomolgus)
[2] = molecular target: canine B7-H3 antigen protein (canine)
[3] = molecular target: rabbit B7-H3 antigen protein (rabbit)

binding [1]: binds
binding [2]: binds
binding [3]: binds
B1: anti-B7-H3 antibody (VA clone) (antibody, V domains shown)
VH: QVQLVQSGAEVKKPGASVKVSCKASGYTFTDSYMHWVRQAPGQGLEWMGWISPRTGGTDYAQKFQGRVTMTRDTSISTAYMELSRLRSDDTAVYYCARGSSRGNDYWGQGTLVTVSS
VL: QSVLTQPASVSGSPGQSITISCTGTGSDVGGYNYVSWYQQHPGKAPKLIIYDVTKRPSGFSNRFSGSKSGNTASLTISGLQAEDEADYYCSSYTSRRTYVFGTGTKLTVL
